Reference: the supplement of paper PMC6078165

Test system: MDAMB436
Assay: relative JC-1 red fluorescence (viability) vs pre-drug, coculture with fibroblast (fraction); higher = more viable cancer cells
Settings: 1 µM
Method: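 JC-1 labelled TNBC cells cocultured 1:1 (1,500 cells each) with CellTrace Violet stained primary or stromal fibroblasts in 384-well plates in FluoroBrite medium, treated with one of 42 anticancer drugs at 0.1, 1, 10 or 100 uM. JC-1 red fluorescence (mitochondrial integrity in cancer cells only) was read by plate reader every 8 h for 72 h. Values are normalised to each well's pre-drug value. The stock of one drug was tenfold lower, so its dose labels may be too high.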

O=NN(CCCl)C(=O)NCCCl [Carmustine]
relative JC-1 red fluorescence
Settings | 8 h | 16 h | 24 h | 32 h | 40 h | 48 h | 56 h | 64 h | 72 h
coculture fibroblast: C12385 | 0.768 | 0.708 | 0.68 | 0.597 | 0.554 | 0.525 | 0.507 | 0.495 | 0.487
coculture fibroblast: H6013 | 0.799 | 0.7331 | 0.709 | 0.695 | 0.689 | 0.717 | 0.674 | 0.661 | 0.616
coculture fibroblast: H6019 | 0.741 | 0.719 | 0.736 | 0.674 | 0.652 | 0.644 | 0.609 | 0.583 | 0.551
coculture fibroblast: H6076 | 0.816 | 0.741 | 0.707 | 0.653 | 0.61 | 0.579 | 0.57 | 0.559 | 0.545
coculture fibroblast: H6231 | 0.693 | 0.615 | 0.665 | 0.579 | 0.563 | 0.5419 | 0.5313 | 0.516 | 0.488
coculture fibroblast: HADF | 0.865 | 0.774 | 0.764 | 0.748 | 0.746 | 0.786 | 0.73 | 0.736 | 0.693
coculture fibroblast: HCFa | 0.794 | 0.699 | 0.662 | 0.628 | 0.599 | 0.617 | 0.554 | 0.547 | 0.482
coculture fibroblast: HCPF | 0.732 | 0.683 | 0.6663 | 0.614 | 0.589 | 0.555 | 0.55 | 0.533 | 0.516
coculture fibroblast: HHSteC | 0.78 | 0.733 | 0.701 | 0.66 | 0.652 | 0.67 | 0.614 | 0.59 | 0.541
coculture fibroblast: HMF | 0.727 | 0.654 | 0.648 | 0.60681 | 0.585 | 0.562 | 0.569 | 0.554 | 0.546
coculture fibroblast: HPFa | 0.8901 | 0.828 | 0.797 | 0.746 | 0.721 | 0.722 | 0.628 | 0.593 | 0.502
coculture fibroblast: HUF | 0.7943 | 0.717 | 0.693 | 0.6166 | 0.5698 | 0.54529 | 0.521 | 0.5052 | 0.496
coculture fibroblast: Hs5 | 0.798 | 0.751 | 0.73409 | 0.6764 | 0.651 | 0.61 | 0.611 | 0.587 | 0.568
coculture fibroblast: Hs27A | 0.78 | 0.693 | 0.671 | 0.646 | 0.627 | 0.694 | 0.588 | 0.574 | 0.496
coculture fibroblast: Hs343T | 0.699 | 0.629 | 0.601 | 0.56 | 0.527 | 0.494 | 0.49 | 0.487 | 0.4804
coculture fibroblast: WS1 | 0.7479 | 0.689 | 0.6682 | 0.5945 | 0.5561 | 0.5342 | 0.5183 | 0.4937 | 0.4803

The reference is the same well before dosing, and untreated signal decays as well.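 Labels refer to human fibroblasts, largely primary: uterine (C12385, HUF), lung (H6013), bone (Hs27A), adrenal (HADF), skin (WS1), plus mammary HMF and breast cancer-associated Hs343T. Cancer lines are basal-like or mesenchymal-like triple-negative breast cancer. The paper counts as hits responses shifting over 3x the replicate standard deviation. The tissue of the other fibroblasts is not given here.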
